For 1 molecule, binding results are on record in US20160311918A1, “Anti-Ron Monoclonal Antibodies as a Cytotoxic Drug Delivery System for Targeted Cancer Therapy” (TEXAS TECH UNIVERSITY SYSTEM, priority 2013, published 2016).

Protein sequences, listed by entry. Tags and fused reporters are not part of them. Residues count along the entry.
UniProt Q04912, residues 25-1400: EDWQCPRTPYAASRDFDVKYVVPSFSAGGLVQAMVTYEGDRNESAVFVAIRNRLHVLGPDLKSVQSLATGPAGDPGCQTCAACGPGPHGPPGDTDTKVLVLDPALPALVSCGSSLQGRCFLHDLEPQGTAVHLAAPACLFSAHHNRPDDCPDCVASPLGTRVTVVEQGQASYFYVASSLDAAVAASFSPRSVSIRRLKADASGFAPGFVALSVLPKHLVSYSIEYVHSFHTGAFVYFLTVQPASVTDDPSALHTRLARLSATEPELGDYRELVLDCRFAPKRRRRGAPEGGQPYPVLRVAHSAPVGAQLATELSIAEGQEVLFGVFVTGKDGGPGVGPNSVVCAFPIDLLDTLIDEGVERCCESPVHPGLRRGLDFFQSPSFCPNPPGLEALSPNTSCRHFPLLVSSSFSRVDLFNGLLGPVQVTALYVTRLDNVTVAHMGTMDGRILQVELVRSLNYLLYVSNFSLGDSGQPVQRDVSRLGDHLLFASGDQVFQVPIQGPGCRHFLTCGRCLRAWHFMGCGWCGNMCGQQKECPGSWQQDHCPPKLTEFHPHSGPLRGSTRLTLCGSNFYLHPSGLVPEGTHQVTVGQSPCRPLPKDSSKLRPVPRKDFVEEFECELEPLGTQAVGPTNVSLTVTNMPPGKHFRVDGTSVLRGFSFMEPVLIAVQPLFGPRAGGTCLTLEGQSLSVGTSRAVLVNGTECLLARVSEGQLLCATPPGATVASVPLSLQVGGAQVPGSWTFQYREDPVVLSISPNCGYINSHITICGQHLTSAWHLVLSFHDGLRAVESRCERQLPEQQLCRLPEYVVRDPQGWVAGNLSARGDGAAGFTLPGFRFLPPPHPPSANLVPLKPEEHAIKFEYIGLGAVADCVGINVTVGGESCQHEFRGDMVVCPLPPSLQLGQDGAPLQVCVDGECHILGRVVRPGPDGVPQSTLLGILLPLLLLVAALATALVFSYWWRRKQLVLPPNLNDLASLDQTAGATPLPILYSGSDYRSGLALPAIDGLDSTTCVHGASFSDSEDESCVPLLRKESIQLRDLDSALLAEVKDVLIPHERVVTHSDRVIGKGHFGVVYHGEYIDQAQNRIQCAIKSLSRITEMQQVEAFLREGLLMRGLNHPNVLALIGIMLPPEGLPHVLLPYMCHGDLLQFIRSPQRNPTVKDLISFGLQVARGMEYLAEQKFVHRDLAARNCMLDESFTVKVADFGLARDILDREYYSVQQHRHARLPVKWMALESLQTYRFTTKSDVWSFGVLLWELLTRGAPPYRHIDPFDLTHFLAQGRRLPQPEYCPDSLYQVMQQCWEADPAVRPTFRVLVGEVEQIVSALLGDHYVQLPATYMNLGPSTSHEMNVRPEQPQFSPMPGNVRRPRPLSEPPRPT

These are yes or no findings as the source states them, for the method shown. Some entries that bind do so weakly or less than the wild type.

Assay [1] has as its target human RON receptor tyrosine kinase (recepteur d'origine nantais) (human) (UniProt Q04912). Briefly: direct binding, ELISA, IHC, Western blotting, flow cytometry. (In an ELISA, binding on a coated surface is turned into a signal by an enzyme label.)
The target is the same in assay [2]. Briefly: receptor binding studies.

B1: mouse monoclonal antibody Zt/f2 specific to human RON (antibody, V domains shown)
VH: QVQLQQSGAELAKPGASVKMSCKASGYTFTSYWMHWVKQRPGQGLEWIGYINPSTGYIEYNQNFKDKATLTADKSSSTAYMQLSSLTSEDSAVYYCARSPSHYYGSRYGYFDVWGAGTTVTVSS
VL: QIVLSQSPAILSASPGEKVTMTCRASSSVSYMHWYQQKPGSSPKPWIYATSNLASGVPARFSGSGSGTSYSLTISRVEAEDAATYYCQQWSSNPRTFGGGTKLEIK
notes: Mouse IgG2a; also called anti-RON mAb Zt/f2
For the molecule B1, the binding entry in assay [1] and in assay [2] was “binds” each time.
